At least one compound was matched to its structure with a doubt left.
Tests used:
[1] = system: tumour; assay: Clinical assessment of anti-tumour effect (CT / PET-CT, RECIST); assay type: in vivo, human
[2] = system: primary tumour cells from the pleura exudate; assay: Ex vivo chemotherapy sensitivity of primary tumour cells isolated before and after selenite treatment (XTT viability); assay type: cell-based, human; conditions: cells isolated before and after selenite treatment of the patient; drugs for 48 hours ex vivo
[3] = system: human lung-lining cancer cell line; assay: Sensitivity of a cancer cell line to prolonged selenite exposure; assay type: cell-based; conditions: exposed to lower concentrations for longer periods of time

With O=[Se](O)O [sodium selenite] the “response to chemotherapy after receiving selenite treatment” value ([1]; many of the patients, first line of chemotherapy) was “responded again to their first line of chemotherapy”, the tumour course ([1]; one patient, 0.9 mg daily during a period of 10 days, tumour resistant to established treatment) was “the tumour progressed with a significant increase of bone metastases and pain” and the “tumour response after selenite treatment” value ([1]; several patients, no patient had a response immediately after treatment) was “stable disease (SD)”. For the same compound, the “sensitivity of the tumour cells to the combined carboplatin and gemcitabine treatment after the selenite treatment” value [2] was “more sensitive” and the sensitivity to selenite [3] was “highly sensitive”.
